# Source: paper PMC7449975
# By UniProt entry, the sequences of proteins in these tests, tags left out. Where a name states a change or a piece, a line headed by the entry shows the natural chain unless it says otherwise. Chains listed by the source or under a name are the forms on record and can include a tag or linker.
# UniProt Q9NVP2: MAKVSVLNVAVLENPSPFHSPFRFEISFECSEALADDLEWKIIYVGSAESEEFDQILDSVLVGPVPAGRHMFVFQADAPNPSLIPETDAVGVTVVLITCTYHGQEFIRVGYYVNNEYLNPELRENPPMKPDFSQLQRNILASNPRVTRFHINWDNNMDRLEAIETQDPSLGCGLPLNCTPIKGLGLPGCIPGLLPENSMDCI
# Isoform 2 of Y-box-binding protein 3 (P16989-2, form named): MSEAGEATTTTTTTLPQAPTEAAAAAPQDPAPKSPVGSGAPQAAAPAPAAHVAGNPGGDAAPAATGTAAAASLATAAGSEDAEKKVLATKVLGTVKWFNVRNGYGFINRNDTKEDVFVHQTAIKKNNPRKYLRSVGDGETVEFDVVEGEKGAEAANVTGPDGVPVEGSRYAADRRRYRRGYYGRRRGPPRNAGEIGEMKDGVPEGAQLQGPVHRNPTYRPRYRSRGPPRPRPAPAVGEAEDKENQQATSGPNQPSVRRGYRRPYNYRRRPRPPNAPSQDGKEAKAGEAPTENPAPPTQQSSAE
# UniProt P30153: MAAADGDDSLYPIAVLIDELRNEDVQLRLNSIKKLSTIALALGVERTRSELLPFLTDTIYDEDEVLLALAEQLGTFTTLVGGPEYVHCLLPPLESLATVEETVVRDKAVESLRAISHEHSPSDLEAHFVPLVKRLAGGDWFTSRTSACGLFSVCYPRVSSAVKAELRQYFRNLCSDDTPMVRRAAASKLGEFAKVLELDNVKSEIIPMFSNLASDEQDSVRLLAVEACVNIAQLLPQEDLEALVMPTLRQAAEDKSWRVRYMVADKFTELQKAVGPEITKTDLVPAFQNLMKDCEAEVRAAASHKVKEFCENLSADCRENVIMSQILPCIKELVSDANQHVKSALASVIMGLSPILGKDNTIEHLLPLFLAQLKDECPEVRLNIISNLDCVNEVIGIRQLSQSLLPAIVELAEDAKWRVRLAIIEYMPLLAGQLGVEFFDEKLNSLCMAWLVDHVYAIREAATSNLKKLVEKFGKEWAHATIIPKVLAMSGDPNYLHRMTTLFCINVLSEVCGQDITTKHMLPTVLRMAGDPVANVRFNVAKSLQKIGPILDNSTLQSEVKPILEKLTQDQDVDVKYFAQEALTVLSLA
# UniProt P26641: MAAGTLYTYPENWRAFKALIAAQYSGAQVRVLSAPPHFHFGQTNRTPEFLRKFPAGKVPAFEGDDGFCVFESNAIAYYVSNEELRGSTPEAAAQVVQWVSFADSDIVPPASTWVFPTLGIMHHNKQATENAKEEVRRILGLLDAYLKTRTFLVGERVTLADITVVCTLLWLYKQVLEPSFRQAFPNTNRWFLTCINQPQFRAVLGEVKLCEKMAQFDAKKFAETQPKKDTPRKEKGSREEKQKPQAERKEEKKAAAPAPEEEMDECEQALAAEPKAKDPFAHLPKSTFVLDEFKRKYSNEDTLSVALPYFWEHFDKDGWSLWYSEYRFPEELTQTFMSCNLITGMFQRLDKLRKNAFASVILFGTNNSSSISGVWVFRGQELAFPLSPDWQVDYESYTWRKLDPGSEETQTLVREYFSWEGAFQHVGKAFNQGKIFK
# UniProt P06733: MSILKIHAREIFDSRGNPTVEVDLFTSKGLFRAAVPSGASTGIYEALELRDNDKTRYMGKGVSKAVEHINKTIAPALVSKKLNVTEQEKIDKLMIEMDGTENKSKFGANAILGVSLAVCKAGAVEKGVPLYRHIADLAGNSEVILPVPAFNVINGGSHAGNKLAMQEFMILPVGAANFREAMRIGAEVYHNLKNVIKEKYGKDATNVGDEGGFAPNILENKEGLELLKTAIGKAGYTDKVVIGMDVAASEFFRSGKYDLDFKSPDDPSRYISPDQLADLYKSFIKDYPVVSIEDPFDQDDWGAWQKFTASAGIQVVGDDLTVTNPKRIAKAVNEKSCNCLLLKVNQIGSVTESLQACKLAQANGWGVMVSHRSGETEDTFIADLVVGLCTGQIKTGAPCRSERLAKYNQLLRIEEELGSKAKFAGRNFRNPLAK
# UniProt P50750: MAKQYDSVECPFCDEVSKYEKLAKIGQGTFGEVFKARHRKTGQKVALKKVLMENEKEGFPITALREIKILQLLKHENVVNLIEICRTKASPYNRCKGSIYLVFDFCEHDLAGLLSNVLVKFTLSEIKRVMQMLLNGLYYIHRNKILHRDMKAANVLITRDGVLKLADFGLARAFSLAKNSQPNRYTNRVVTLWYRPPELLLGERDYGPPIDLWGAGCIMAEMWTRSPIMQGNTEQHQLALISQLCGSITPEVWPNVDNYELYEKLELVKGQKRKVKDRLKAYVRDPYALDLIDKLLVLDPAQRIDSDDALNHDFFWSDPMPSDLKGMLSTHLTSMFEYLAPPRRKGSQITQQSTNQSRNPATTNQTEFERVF
# B1: Malate dehydrogenase, mitochondrial (protein, UniProt P40926 25-338)
# chain: AKVAVLGASGGIGQPLSLLLKNSPLVSRLTLYDIAHTPGVAADLSHIETKAAVKGYLGPEQLPDCLKGCDVVVIPAGVPRKPGMTRDDLFNTNATIVATLTAACAQHCPEAMICVIANPVNSTIPITAEVFKKHGVYNPNKIFGVTTLDIVRANTFVAELKGLDPARVNVPVIGGHAGKTIIPLISQCTPKVDFPQDQLTALTGRIQEAGTEVVKAKAGAGSATLSMAYAGARFVFSLVDAMNGKEGVVECSFVKSQETECTYFSTPLLLGKKGIEKNLGIGKVSSFEEKMISDAIPELKASIKKGEDFVKTLK
# B2: Fork head box protein F1 (protein, UniProt Q12946 1-379)
# chain: MSSAPEKQQPPHGGGGGGGGGGGAAMDPASSGPSKAKKTNAGIRRPEKPPYSYIALIVMAIQSSPTKRLTLSEIYQFLQSRFPFFRGSYQGWKNSVRHNLSLNECFIKLPKGLGRPGKGHYWTIDPASEFMFEEGSFRRRPRGFRRKCQALKPMYSMMNGLGFNHLPDTYGFQGSAGGLSCPPNSLALEGGLGMMNGHLPGNVDGMALPSHSVPHLPSNGGHSYMGGCGGAAAGEYPHHDSSVPASPLLPTGAGGVMEPHAVYSGSAAAWPPSASAALNSGASYIKQQPLSPCNPAANPLSGSLSTHSLEQPYLHQNSHNAPAELQGIPRYHSQSPSMCDRKEFVFSFNAMASSSMHSAGGGSYYHQQVTYQDIKPCVM
# B3: ATP-dependent RNA helicase DHX29 (protein, UniProt Q7Z478 1-1369)
# chain: MGGKNKKHKAPAAAVVRAAVSASRAKSAEAGIAGEAQSKKPVSRPATAAAAAAGSREPRVKQGPKIYSFNSTNDSSGPANLDKSILKVVINNKLEQRIIGVINEHKKQNNDKGMISGRLTAKKLQDLYMALQAFSFKTKDIEDAMTNTLLYGGDLHSALDWLCLNLSDDALPEGFSQEFEEQQPKSRPKFQSPQIQATISPPLQPKTKTYEEDPKSKPKKEEKNMEVNMKEWILRYAEQQNEEEKNENSKSLEEEEKFDPNERYLHLAAKLLDAKEQAATFKLEKNKQGQKEAQEKIRKFQREMETLEDHPVFNPAMKISHQQNERKKPPVATEGESALNFNLFEKSAAATEEEKDKKKEPHDVRNFDYTARSWTGKSPKQFLIDWVRKNLPKSPNPSFEKVPVGRYWKCRVRVIKSEDDVLVVCPTILTEDGMQAQHLGATLALYRLVKGQSVHQLLPPTYRDVWLEWSDAEKKREELNKMETNKPRDLFIAKLLNKLKQQQQQQQQHSENKRENSEDPEESWENLVSDEDFSALSLESANVEDLEPVRNLFRKLQSTPKYQKLLKERQQLPVFKHRDSIVETLKRHRVVVVAGETGSGKSTQVPHFLLEDLLLNEWEASKCNIVCTQPRRISAVSLANRVCDELGCENGPGGRNSLCGYQIRMESRACESTRLLYCTTGVLLRKLQEDGLLSNVSHVIVDEVHERSVQSDFLLIILKEILQKRSDLHLILMSATVDSEKFSTYFTHCPILRISGRSYPVEVFHLEDIIEETGFVLEKDSEYCQKFLEEEEEVTINVTSKAGGIKKYQEYIPVQTGAHADLNPFYQKYSSRTQHAILYMNPHKINLDLILELLAYLDKSPQFRNIEGAVLIFLPGLAHIQQLYDLLSNDRRFYSERYKVIALHSILSTQDQAAAFTLPPPGVRKIVLATNIAETGITIPDVVFVIDTGRTKENKYHESSQMSSLVETFVSKASALQRQGRAGRVRDGFCFRMYTRERFEGFMDYSVPEILRVPLEELCLHIMKCNLGSPEDFLSKALDPPQLQVISNAMNLLRKIGACELNEPKLTPLGQHLAALPVNVKIGKMLIFGAIFGCLDPVATLAAVMTEKSPFTTPIGRKDEADLAKSALAMADSDHLTIYNAYLGWKKARQEGGYRSEITYCRRNFLNRTSLLTLEDVKQELIKLVKAAGFSSSTTSTSWEGNRASQTLSFQEIALLKAVLVAGLYDNVGKIIYTKSVDVTEKLACIVETAQGKAQVHPSSVNRDLQTHGWLLYQEKIRYARVYLRETTLITPFPVLLFGGDIEVQHRERLLSIDGWIYFQAPVKIAVIFKQLRVLIDSVLRKKLENPKMSLENDKILQIITELIKTENN
# B4: Sjoegren syndrome/scleroderma autoantigen 1 (protein, UniProt O60232 1-199)
# chain: MALNGAEVDDFSWEPPTEAETKVLQARRERQDRISRLMGDYLLRGYRMLGETCADCGTILLQDKQRKIYCVACQELDSDVDKDNPALNAQAALSQAREHQLASASELPLGSRPAPQPPVPRPEHCEGAAAGLKAAQGPPAPAVPPNTDVMACTQTALLQKLTWASAELGSSTSLETSIQLCGLIRACAEALRSLQQLQH
# Molecular target: Flag-ASF1B (human) (UniProt Q9NVP2)
# Assay: affinity purification with mass spectrometry; whole-cell extracts of Flag-ASF1B-transfected HeLa cells; anti-Flag affinity sepharose or normal iso-type antibody, overnight at 4 °C; SDS-PAGE, silver staining, LC-MS
row,Molecule,binding
1,Isoform 2 of Y-box-binding protein 3 (from UniProt P16989-2 1-303),binds
2,Serine/threonine-protein phosphatase 2A 65 kDa regulatory subunit A alpha isoform (from UniProt P30153 1-589),binds
3,Elongation factor 1-gamma (from UniProt P26641 1-437),binds
4,Alpha-enolase (from UniProt P06733 1-434),binds
5,cyclin-dependent kinase 9 (from UniProt P50750 1-372),binds

# Molecular target: Flag-ASF1B (human) (UniProt Q9NVP2)
# Assay: as above
# Remark: another data set of the same source
row,Molecule,binding
1,B1,binds
2,B2,binds
3,B3,binds
4,B4,binds

# No constants are given. Whether binding was seen depends on the method and setting. Binding seen in cells or lysates may run through a third protein. A yes stands for co-enrichment or nearness to the bait. Other partners may have been found.
